Data published in the supplement of paper PMC7238544.
± gives the standard deviation of the averaged measurements. Some of the results follow. The data scatter; read single values as rough. *1 amine or outer side, *2 acyl side, *3 side chain or, on linkers, in order; H or OH if unused. Where a SMILES comes first, the peptide text is derived from it. Bridges are numbered along the chain shown (N, C = ends). Roman numbers before positions name the chains, in order. [ ]: non-standard residue; d: D form. Actinocin(9to1) = Cc1c2oc3c(C)ccc(C(=O)[*:1])c3nc-2c(C(=O)[*:2])c(N)c1=O; NMeV = CN[C@H](C(=O)O)C(C)C; Sar = CNCC(=O)O

Tests used:
hAMSC donor 1 [1] = assay: Hoechst total cell count ratio vs vehicle control; higher = more cells (less toxicity)
hAMSC donor 2 [2] = assay: as above
hAMSC donor 1 [3] = assay: transgenic luciferase activity (RLU/mg protein) fold change vs vehicle control (ratio); higher = more transgene expression
hAMSC donor 2 [4] = assay: as above
hAMSC donor 1 [5] = assay: transfection efficiency (EGFP+ cells / Hoechst count) fold change vs vehicle control (ratio); hAMSC are human adipose-derived mesenchymal stem cells given an EGFP-luciferase plasmid by lipofection; higher = enhanced transfection
hAMSC donor 2 [6] = assay: as above
[7] = priming compound concentration 0.2 µM
[8] = priming compound concentration 1.7 µM
[9] = priming compound concentration 13 µM

SMILES	Hoechst total cell count ratio (hAMSC donor 1 [1]; [7])	Hoechst total cell count ratio (hAMSC donor 1 [1]; [8])	Hoechst total cell count ratio (hAMSC donor 1 [1]; [9])	Hoechst total cell count ratio (hAMSC donor 2 [2]; [7])	Hoechst total cell count ratio (hAMSC donor 2 [2]; [8])	Hoechst total cell count ratio (hAMSC donor 2 [2]; [9])	transgenic luciferase activity (hAMSC donor 1 [3]; [7])	transgenic luciferase activity (hAMSC donor 1 [3]; [8])	transgenic luciferase activity (hAMSC donor 2 [4]; [7])	transgenic luciferase activity (hAMSC donor 2 [4]; [8])	transgenic luciferase activity (hAMSC donor 2 [4]; [9])	transfection efficiency (hAMSC donor 1 [5]; [7])	transfection efficiency (hAMSC donor 1 [5]; [8])	transfection efficiency (hAMSC donor 1 [5]; [9])	transfection efficiency (hAMSC donor 2 [6]; [7])	transfection efficiency (hAMSC donor 2 [6]; [8])	transfection efficiency (hAMSC donor 2 [6]; [9])	transgenic luciferase activity (hAMSC donor 1 [3]; [9])
Cc1c2oc3c(C)ccc(C(=O)N[C@@H]4C(=O)N[C@H](C(C)C)C(=O)N5CCC[C@H]5C(=O)N(C)CC(=O)N(C)[C@@H](C(C)C)C(=O)O[C@@H]4C)c3nc-2c(C(=O)N[C@@H]2C(=O)N[C@H](C(C)C)C(=O)N3CCC[C@H]3C(=O)N(C)CC(=O)N(C)[C@@H](C(C)C)C(=O)O[C@@H]2C)c(N)c1=O [Dactinomycin] (I: T[dV]P[Sar][NMeV] / II: T[dV]P[Sar][NMeV]; ester I:1-I:C, II:1-II:C; linker I:N-II:N via Actinocin(9to1))	0.532 ± 0.067	0.386 ± 0.094	0.267 ± 0.022	0.474 ± 0.055	0.311 ± 0.016	0.134 ± 0.01	1.37 ± 0.68	3.27 ± 1.1	1.35 ± 0.22	0.419 ± 0.098	0.00885 ± 0.0083	1.22 ± 0.14	0.398 ± 0.16	0.227 ± 0.24	2.23 ± 0.58	1.42 ± 0.55	0.173 ± 0.19	
Cc1cccc(Nc2ccncc2S(=O)(=O)NC(=O)NC(C)C)c1 [Torasemide]	1.02 ± 0.036	1.02 ± 0.11	1.3 ± 0.068	1.08 ± 0.23	1.08 ± 0.11	1.27 ± 0.2	0.591 ± 0.13	1.05 ± 0.66	0.505 ± 0.33	1.1 ± 0.033	0.573 ± 0.26	1.57 ± 0.4	1.63 ± 0.15	1.2 ± 0.33	1.05 ± 0.12	1.14 ± 0.058	1.13 ± 0.22	
CN(C)c1nc(N(C)C)nc(N(C)C)n1 [Altretamine]	1.22 ± 0.2	1.09 ± 0.16	1.34 ± 0.38	1.15 ± 0.081	1.26 ± 0.064	1.42 ± 0.074		0.83 ± 0.11	0.66 ± 0.1	0.602 ± 0.096	0.581 ± 0.14	0.781 ± 0.093	1.22 ± 0.25	0.954 ± 0.41	0.916 ± 0.039	1.03 ± 0.2	0.739 ± 0.072	0.504 ± 0.055
O=C(O[C@H]1[C@H](Oc2ccccc2COC(=O)C2(O)C=CCCC2=O)O[C@H](CO)[C@@H](O)[C@@H]1O)c1ccccc1 (some centres not stated) [Tremulacin]	1.51 ± 0.15	1.26 ± 0.16	1.17 ± 0.1	1.16 ± 0.17	1.23 ± 0.022	1.26 ± 0.12		0.907 ± 0.3	0.506 ± 0.11	0.757 ± 0.036	0.896 ± 0.24	0.987 ± 0.32	1.22 ± 0.26	1.56 ± 0.087	0.835 ± 0.23	0.992 ± 0.073	0.909 ± 0.25	0.671 ± 0.11
CN(C)CCc1c[nH]c2ccc(C[C@H]3COC(=O)N3)cc12 [Zolmitriptan]	1.07 ± 0.19	1.54 ± 0.16	1.11 ± 0.18	1.22 ± 0.054	0.682 ± 0.015	0.906 ± 0.11	0.85 ± 0.5	1.67 ± 0.25		0.456 ± 0.03	0.431 ± 0.088	1.22 ± 0.2	1.08 ± 0.29	1.27 ± 0.27	0.834 ± 0.028	1.46 ± 0.054	1.24 ± 0.18	
C[C@]12CCC(=O)C=C1CC[C@@H]1[C@@H]2CC[C@@]2(C)[C@H]1CC[C@]2(O)C(=O)CO [11-Deoxycortisol]	1.38 ± 0.15	1.3 ± 0.16	1.29 ± 0.036	1.03 ± 0.16	1.29 ± 0.058	1.31 ± 0.35	0.518 ± 0.029	1.41 ± 1	0.69 ± 0.24	0.654 ± 0.072	1.35 ± 0.2	0.966 ± 0.15	0.798 ± 0.15	1.15 ± 0.076	1.06 ± 0.29	0.868 ± 0.066	1.18 ± 0.28	
O=C(C1CCCCC1)N1CC(=O)N2CCc3ccccc3C2C1 (configuration not stated) [Praziquantel]	1.31 ± 0.17	1.2 ± 0.11	1.29 ± 0.074	1.09 ± 0.09	0.772 ± 0.17	0.822 ± 0.13	0.37 ± 0.12		0.789 ± 0.22	0.499 ± 0.23		1.19 ± 0.18	1.32 ± 0.14	1.46 ± 0.085	0.73 ± 0.088	1.35 ± 0.11	1.15 ± 0.33	6.81 ± 3.5
C[C@]12C=CC(=O)C=C1CC[C@@H]1[C@@H]2[C@@H](O)C[C@@]2(C)[C@H]1CC[C@]2(O)C(=O)CO [Prednisolone]	1.34 ± 0.41	1.27 ± 0.14	1.08 ± 0.077	1.05 ± 0.1	1.87 ± 0.44	2.38 ± 0.56		3.89 ± 4		2.72 ± 0.27	2.57 ± 0.8	1.46 ± 0.56	1.35 ± 0.59	2 ± 0.17	1.31 ± 0.11	1.56 ± 0.27	1.17 ± 0.27	6.49 ± 0.95
CC1=C(CC(=O)O)c2cc(F)ccc2/C1=C\c1ccc([S+](C)[O-])cc1 (configuration not stated) [Sulindac]	1.23 ± 0.068	1.44 ± 0.36	1.52 ± 0.31	1.17 ± 0.086	0.8 ± 0.38	1.4 ± 0.048	0.977 ± 0.85	0.667 ± 0.24		0.787 ± 0.32	0.473 ± 0.041	1.37 ± 0.23	1.17 ± 0.11	0.903 ± 0.081	1 ± 0.078	1.8 ± 0.45	0.683 ± 0.02	
CC(C)[N+]1(C)[C@@H]2CC[C@H]1C[C@@H](OC(=O)C(CO)c1ccccc1)C2 (some centres not stated) [Ipratropium bromide]	1.5 ± 0.13	1.15 ± 0.24	1 ± 0.037	0.828 ± 0.12	1.09 ± 0.092	1.36 ± 0.24		0.345 ± 0.15		0.554 ± 0.037	0.345 ± 0.11	1.07 ± 0.32	0.975 ± 0.19	1.72 ± 0.14	1.4 ± 0.23	1.14 ± 0.039	1.04 ± 0.073	0.804 ± 0.13
CCCc1c(OCCCCc2nnn[nH]2)ccc(C(C)=O)c1O	1.29 ± 0.075	1.16 ± 0.25	1.57 ± 0.27	1.2 ± 0.076	0.813 ± 0.13	1.17 ± 0.098	0.802 ± 0.29		0.772 ± 0.15	0.716 ± 0.21		1.49 ± 0.57	1.1 ± 0.34	1.05 ± 0.2	1.02 ± 0.18	1.3 ± 0.053	1.12 ± 0.14	1.66 ± 1.3
C[C@](N)(Cc1ccc(O)c(O)c1)C(=O)O [Methyldopa]	1.16 ± 0.14	1.19 ± 0.068	1.16 ± 0.37	0.987 ± 0.12	0.621 ± 0.14	1.01 ± 0.26	1.35 ± 0.54	0.71 ± 0.12		0.402 ± 0.053	1.6 ± 0.45	1.21 ± 0.15	1.05 ± 0.14	0.969 ± 0.043	0.955 ± 0.27	1.15 ± 0.085	1.38 ± 0.14	

Structural class, the entries above with an NH in an aromatic ring.
SMILES	Hoechst total cell count ratio (hAMSC donor 1 [1]; [7])	Hoechst total cell count ratio (hAMSC donor 1 [1]; [8])	Hoechst total cell count ratio (hAMSC donor 1 [1]; [9])	Hoechst total cell count ratio (hAMSC donor 2 [2]; [7])	Hoechst total cell count ratio (hAMSC donor 2 [2]; [8])	Hoechst total cell count ratio (hAMSC donor 2 [2]; [9])	transgenic luciferase activity (hAMSC donor 1 [3]; [7])	transgenic luciferase activity (hAMSC donor 1 [3]; [8])	transgenic luciferase activity (hAMSC donor 2 [4]; [7])	transgenic luciferase activity (hAMSC donor 2 [4]; [8])	transgenic luciferase activity (hAMSC donor 2 [4]; [9])	transfection efficiency (hAMSC donor 1 [5]; [7])	transfection efficiency (hAMSC donor 1 [5]; [8])	transfection efficiency (hAMSC donor 1 [5]; [9])	transfection efficiency (hAMSC donor 2 [6]; [7])	transfection efficiency (hAMSC donor 2 [6]; [8])	transfection efficiency (hAMSC donor 2 [6]; [9])	transgenic luciferase activity (hAMSC donor 1 [3]; [9])
CN(C)CCc1c[nH]c2ccc(C[C@H]3COC(=O)N3)cc12 [Zolmitriptan]	1.07 ± 0.19	1.54 ± 0.16	1.11 ± 0.18	1.22 ± 0.054	0.682 ± 0.015	0.906 ± 0.11	0.85 ± 0.5	1.67 ± 0.25		0.456 ± 0.03	0.431 ± 0.088	1.22 ± 0.2	1.08 ± 0.29	1.27 ± 0.27	0.834 ± 0.028	1.46 ± 0.054	1.24 ± 0.18	
CCCc1c(OCCCCc2nnn[nH]2)ccc(C(C)=O)c1O	1.29 ± 0.075	1.16 ± 0.25	1.57 ± 0.27	1.2 ± 0.076	0.813 ± 0.13	1.17 ± 0.098	0.802 ± 0.29		0.772 ± 0.15	0.716 ± 0.21		1.49 ± 0.57	1.1 ± 0.34	1.05 ± 0.2	1.02 ± 0.18	1.3 ± 0.053	1.12 ± 0.14	1.66 ± 1.3
